Reference: patent US7101967B2 (priority 1998, dated 2006)

Test: general procedure: Fmoc solid-phase peptide synthesis; Macro Crowns (SynPhase HM Series I, Rink Amide Linker); Fmoc-Cys(Trt)-resin / Fmoc-Lys(Boc)-resin (0.5 mmol/g); Rink Ami; PyBOP/HOBt/DIEA (1:1:1.5)
Settings: for isolated yield: on resin loading
[1] = whole synthesis, 214 nm, scale of the general procedure 5.3 μmol/crown, 0.25 mmol
[2] = whole synthesis, scale of the general procedure 5.3 μmol/crown, 0.25 mmol
[3] = conjugation step, Anal. RP-HPLC, chromatogram integration (λ = 214 nm)

| Substance | final HPLC purity [1] [%] | isolated yield [2] [%] | conjugation yield (conjugation step) [%] | final HPLC purity [3] [%] |
| --- | --- | --- | --- | --- |
| Biotinyl-βAla-Arg-Gln-Ile-Lys-Ile-Trp-Phe-Gln-Asn-Arg-Arg-Met-Lys-Trp-Lys-Lys-NH2 (ARQIKIWFQNRRMKWKK; N-terminal biotin, beta-residue; C-terminal amide; MOD_RES (1) bAla) | 78 | 50 | – | – |
| {Biotin-βAla}-AQIKIWFQNRRMKWKK-NH2 | 66 | 44 | – | – |
| {Biotin-βAla}-FQNRRMKWKK-NH2 | 91 | 58 | 97 | >98 |
| {Biotin-βAla}-NRRMKWKK-NH2 | 93 | 57 | – | – |
| {Biotin-βAla}-QNRRMKWKK-NH2 | 93 | 67 | – | – |
| {Biotin-βAla}-RAIKIWFQNRRMKWKK-NH2 | 79 | 47 | – | – |
| {Biotin-βAla}-RMKWKK-NH2 | 96 | 81 | – | – |
| {Biotin-βAla}-RQAKIWFQNRRMKWKK-NH2 | 80 | 44 | – | – |
| {Biotin-βAla}-RQIAIWFQNRRMKWKK-NH2 | 76 | 48 | – | – |
| {Biotin-βAla}-RQIKAWFQNRRMKWKK-NH2 | 80 | 51 | – | – |
| {Biotin-βAla}-RQIKIAFQNRRMKWKK-NH2 | 80 | 52 | – | – |
| {Biotin-βAla}-RQIKIW-NH2 | 93 | 53 | 46 | >98 |
| {Biotin-βAla}-RQIKIWAQNRRMKWKK-NH2 | 78 | 47 | – | – |
| {Biotin-βAla}-RQIKIWFANRRMKWKK-NH2 | 79 | 49 | – | – |
| {Biotin-βAla}-RQIKIWFQARRMKWKK-NH2 | 75 | 43 | – | – |
| {Biotin-βAla}-RQIKIWFQN-NH2 | 95 | 59 | 63 | >98 |
| {Biotin-βAla}-RQIKIWFQNARMKWKK-NH2 | 77 | 43 | – | – |
| {Biotin-βAla}-RQIKIWFQNRAMKWKK-NH2 | 77 | 58 | – | – |
| {Biotin-βAla}-RQIKIWFQNRR-NH2 | 98 | 58 | 57 | >98 |
| {Biotin-βAla}-RQIKIWFQNRRAKWKK-NH2 | 96 | 49 | – | – |
| {Biotin-βAla}-RQIKIWFQNRRMAWKK-NH2 | 79 | 52 | – | – |
| {Biotin-βAla}-RQIKIWFQNRRMK-NH2 | 75 | 67 | – | – |
| {Biotin-βAla}-RQIKIWFQNRRMKAKK-NH2 | 83 | 66 | – | – |
| {Biotin-βAla}-RQIKIWFQNRRMKW-NH2 | 79 | 40 | – | – |
| {Biotin-βAla}-RQIKIWFQNRRMKWAK-NH2 | 78 | 68 | – | – |
| {Biotin-βAla}-RQIKIWFQNRRMKWK-NH2 | 78 | 53 | – | – |
| {Biotin-βAla}-RQIKIWFQNRRMKWKA-NH2 | 73 | 76 | – | – |
| {Biotin-βAla}-RRMKWKK-NH2 | 94 | 73 | – | – |

* marks the point of attachment. Biotin = O=C1N[C@H]2[C@H](CS[C@H]2CCCCC(=O)*)N1; βAla = NCCC(=O)O
